Source: PubChem BioAssay AID652272 (Drosophila RNAi Screening Center, 2013)
In all, the deposit lists about 21,000 reagents; below is an unselected part of those with a known target gene and a result. Over the whole deposit, 503 (2.4%) were called active. 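Raw plate light values, not normalised; calls rest on replicate z-scores that were not deposited; hits include reporter decreases as well as increases.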 A number with no mark means an inactive call. A plus sign joins genes that one reagent is predicted to hit. Not stated in the record: the amount of reagent, the time to read-out.

- Purpose: 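Genes whose knock-down decreases or increases Hedgehog reporter output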 (primary screen)
- System: Drosophila clone 8 (Cl8) cells
- Knock-down reagent: long dsRNA against Drosophila genes
- Read-out: 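Firefly light from a Hedgehog-responsive ptc promoter reporter and Renilla reference light, both read on a plate reader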
- Scale: firefly Hh reporter signal: higher = more ptc reporter light; Renilla reference signal: higher = more Renilla control light
- Rule for the call: 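Hit when the z-score averaged over two replicates is under -2 or over +3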
- Meaning of the calls: active = hit: reporter lowered or raised; inactive = not a hit

The first 2 records as a preview:
Pex3 (Peroxin 3) [SID104190523] — firefly Hh reporter signal, replicate 1 = 1.03e5; firefly Hh reporter signal, replicate 2 = 59677; Renilla reference signal, replicate 1 = 3617; Renilla reference signal, replicate 2 = 2801
Tmtc3 (Transmembrane O-mannosyltransferase targeting cadherins 3) [SID104184236] — firefly Hh reporter signal, replicate 1 = 67753; firefly Hh reporter signal, replicate 2 = 62491; Renilla reference signal, replicate 1 = 1868; Renilla reference signal, replicate 2 = 2396

Main list, from the start:
Pex3 (Peroxin 3) [SID104190523] — firefly Hh reporter signal, replicate 1 = 1.03e5; firefly Hh reporter signal, replicate 2 = 59677; Renilla reference signal, replicate 1 = 3617; Renilla reference signal, replicate 2 = 2801
Tmtc3 (Transmembrane O-mannosyltransferase targeting cadherins 3) [SID104184236] — firefly Hh reporter signal, replicate 1 = 67753; firefly Hh reporter signal, replicate 2 = 62491; Renilla reference signal, replicate 1 = 1868; Renilla reference signal, replicate 2 = 2396
CG11920 [SID104194231] — firefly Hh reporter signal, replicate 1 = 89120; firefly Hh reporter signal, replicate 2 = 56188; Renilla reference signal, replicate 1 = 3889; Renilla reference signal, replicate 2 = 2267
CG15269 [SID104181734] — firefly Hh reporter signal, replicate 1 = 75162; firefly Hh reporter signal, replicate 2 = 59688; Renilla reference signal, replicate 1 = 1920; Renilla reference signal, replicate 2 = 5948
Plc21C (Phospholipase C at 21C) [SID104180565] — firefly Hh reporter signal, replicate 1 = 91536; firefly Hh reporter signal, replicate 2 = 69078; Renilla reference signal, replicate 1 = 3901; Renilla reference signal, replicate 2 = 3120
CG14115 [SID104189910] — firefly Hh reporter signal, replicate 1 = 58009; firefly Hh reporter signal, replicate 2 = 49800; firefly Hh reporter signal, replicate 3 = 44360; Renilla reference signal, replicate 1 = 3531; Renilla reference signal, replicate 2 = 2756
Ack (Activated Cdc42 kinase) [SID104187927] — firefly Hh reporter signal, replicate 1 = 60901; firefly Hh reporter signal, replicate 2 = 39356; Renilla reference signal, replicate 1 = 2136; Renilla reference signal, replicate 2 = 3155
scpr-A + scpr-C + scpr-B [SID104195507] — firefly Hh reporter signal, replicate 1 = 69288; firefly Hh reporter signal, replicate 2 = 1.34e5; Renilla reference signal, replicate 1 = 1339; Renilla reference signal, replicate 2 = 3696
trc (tricornered) [SID104191198] — firefly Hh reporter signal, replicate 1 = 1.45e5; firefly Hh reporter signal, replicate 2 = 1.62e5; Renilla reference signal, replicate 1 = 4853; Renilla reference signal, replicate 2 = 4198
CG18420 [SID104181746] — firefly Hh reporter signal, replicate 1 = 1.31e5; firefly Hh reporter signal, replicate 2 = 55510; Renilla reference signal, replicate 1 = 3290; Renilla reference signal, replicate 2 = 5763
CG18596 [SID104195147] — firefly Hh reporter signal, replicate 1 = 1.27e5; firefly Hh reporter signal, replicate 2 = 88068; Renilla reference signal, replicate 1 = 5688; Renilla reference signal, replicate 2 = 3639
IRSp53 (Insulin receptor substrate 53 kDa) [SID104190683] — firefly Hh reporter signal, replicate 1 = 36300; firefly Hh reporter signal, replicate 2 = 53089; firefly Hh reporter signal, replicate 3 = 43468; Renilla reference signal, replicate 1 = 3896; Renilla reference signal, replicate 2 = 3561
Osi24 (Osiris 24) [SID104192067] — firefly Hh reporter signal, replicate 1 = 93413; firefly Hh reporter signal, replicate 2 = 1.07e5; Renilla reference signal, replicate 1 = 3708; Renilla reference signal, replicate 2 = 2881
CG34183 [SID104180891] — firefly Hh reporter signal, replicate 1 = 5.94e5; firefly Hh reporter signal, replicate 2 = 3.17e5; Renilla reference signal, replicate 1 = 28568; Renilla reference signal, replicate 2 = 13286
Atx-1 (Ataxin 1) [SID104198157] — firefly Hh reporter signal, replicate 1 = 96876; firefly Hh reporter signal, replicate 2 = 2.93e5; Renilla reference signal, replicate 1 = 3575; Renilla reference signal, replicate 2 = 9722
NimB4 (Nimrod B4) [SID104181676] — firefly Hh reporter signal, replicate 1 = 63768; firefly Hh reporter signal, replicate 2 = 35265; Renilla reference signal, replicate 1 = 2677; Renilla reference signal, replicate 2 = 1428
zormin [SID104187761] — firefly Hh reporter signal, replicate 1 = 1.32e5; firefly Hh reporter signal, replicate 2 = 2.22e5; Renilla reference signal, replicate 1 = 4237; Renilla reference signal, replicate 2 = 9568
zormin [SID104188002] — firefly Hh reporter signal, replicate 1 = 70705; firefly Hh reporter signal, replicate 2 = 43988; Renilla reference signal, replicate 1 = 1926; Renilla reference signal, replicate 2 = 3158
zormin [SID104188004] — firefly Hh reporter signal, replicate 1 = 55778; firefly Hh reporter signal, replicate 2 = 49202; Renilla reference signal, replicate 1 = 1720; Renilla reference signal, replicate 2 = 3549
zormin [SID104188005] — firefly Hh reporter signal, replicate 1 = 75225; firefly Hh reporter signal, replicate 2 = 42985; Renilla reference signal, replicate 1 = 1760; Renilla reference signal, replicate 2 = 3123
zormin [SID104188089] — firefly Hh reporter signal, replicate 1 = 77060; firefly Hh reporter signal, replicate 2 = 53904; Renilla reference signal, replicate 1 = 1530; Renilla reference signal, replicate 2 = 4045
zormin [SID104188363] — firefly Hh reporter signal, replicate 1 = 50759; firefly Hh reporter signal, replicate 2 = 48348; Renilla reference signal, replicate 1 = 3378; Renilla reference signal, replicate 2 = 2725
